PMC9260213
Results are given in words; binding and its absence hold for the method and conditions named. Some results given as binding are weak or reduced against the parent protein; the word gives no strength.

Protein sequences, listed by entry. Tags and fused reporters are not part of them. Lines headed by an entry give the natural chain unless they say otherwise; changes in a name come on top.
UniProt Q7TT37: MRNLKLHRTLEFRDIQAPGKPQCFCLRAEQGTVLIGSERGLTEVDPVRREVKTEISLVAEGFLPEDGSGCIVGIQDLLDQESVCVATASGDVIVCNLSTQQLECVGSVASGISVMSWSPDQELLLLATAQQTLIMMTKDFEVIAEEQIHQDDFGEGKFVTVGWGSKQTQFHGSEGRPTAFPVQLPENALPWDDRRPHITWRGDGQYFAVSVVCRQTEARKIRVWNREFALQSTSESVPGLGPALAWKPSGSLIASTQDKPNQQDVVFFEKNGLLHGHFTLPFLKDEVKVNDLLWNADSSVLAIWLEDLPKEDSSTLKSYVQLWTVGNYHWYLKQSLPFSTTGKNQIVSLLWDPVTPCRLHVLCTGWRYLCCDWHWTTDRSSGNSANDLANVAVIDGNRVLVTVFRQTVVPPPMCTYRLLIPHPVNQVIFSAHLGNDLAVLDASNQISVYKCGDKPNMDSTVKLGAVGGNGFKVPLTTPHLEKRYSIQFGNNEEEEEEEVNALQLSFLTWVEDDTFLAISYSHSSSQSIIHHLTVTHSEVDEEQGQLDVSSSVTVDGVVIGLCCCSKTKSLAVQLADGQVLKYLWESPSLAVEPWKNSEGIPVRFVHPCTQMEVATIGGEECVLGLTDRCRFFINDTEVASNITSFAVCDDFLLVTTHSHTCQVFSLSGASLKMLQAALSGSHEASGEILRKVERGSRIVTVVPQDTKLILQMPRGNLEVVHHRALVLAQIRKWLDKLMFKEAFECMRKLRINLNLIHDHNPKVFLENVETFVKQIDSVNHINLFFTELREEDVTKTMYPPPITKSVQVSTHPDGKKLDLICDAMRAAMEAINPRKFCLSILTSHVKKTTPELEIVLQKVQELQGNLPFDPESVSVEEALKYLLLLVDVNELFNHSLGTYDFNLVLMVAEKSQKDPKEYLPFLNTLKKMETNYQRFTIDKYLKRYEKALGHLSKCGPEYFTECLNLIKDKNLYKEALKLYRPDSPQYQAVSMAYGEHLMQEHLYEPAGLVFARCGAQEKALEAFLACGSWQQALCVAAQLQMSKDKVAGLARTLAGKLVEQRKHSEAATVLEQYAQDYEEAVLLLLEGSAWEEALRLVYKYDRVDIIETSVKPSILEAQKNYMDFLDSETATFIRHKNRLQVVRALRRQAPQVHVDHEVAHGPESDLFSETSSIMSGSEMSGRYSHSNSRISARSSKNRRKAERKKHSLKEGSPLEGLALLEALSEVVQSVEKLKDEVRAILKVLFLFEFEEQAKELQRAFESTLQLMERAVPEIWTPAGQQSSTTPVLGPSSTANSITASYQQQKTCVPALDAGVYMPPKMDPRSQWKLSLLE
UniProt Q91WG4: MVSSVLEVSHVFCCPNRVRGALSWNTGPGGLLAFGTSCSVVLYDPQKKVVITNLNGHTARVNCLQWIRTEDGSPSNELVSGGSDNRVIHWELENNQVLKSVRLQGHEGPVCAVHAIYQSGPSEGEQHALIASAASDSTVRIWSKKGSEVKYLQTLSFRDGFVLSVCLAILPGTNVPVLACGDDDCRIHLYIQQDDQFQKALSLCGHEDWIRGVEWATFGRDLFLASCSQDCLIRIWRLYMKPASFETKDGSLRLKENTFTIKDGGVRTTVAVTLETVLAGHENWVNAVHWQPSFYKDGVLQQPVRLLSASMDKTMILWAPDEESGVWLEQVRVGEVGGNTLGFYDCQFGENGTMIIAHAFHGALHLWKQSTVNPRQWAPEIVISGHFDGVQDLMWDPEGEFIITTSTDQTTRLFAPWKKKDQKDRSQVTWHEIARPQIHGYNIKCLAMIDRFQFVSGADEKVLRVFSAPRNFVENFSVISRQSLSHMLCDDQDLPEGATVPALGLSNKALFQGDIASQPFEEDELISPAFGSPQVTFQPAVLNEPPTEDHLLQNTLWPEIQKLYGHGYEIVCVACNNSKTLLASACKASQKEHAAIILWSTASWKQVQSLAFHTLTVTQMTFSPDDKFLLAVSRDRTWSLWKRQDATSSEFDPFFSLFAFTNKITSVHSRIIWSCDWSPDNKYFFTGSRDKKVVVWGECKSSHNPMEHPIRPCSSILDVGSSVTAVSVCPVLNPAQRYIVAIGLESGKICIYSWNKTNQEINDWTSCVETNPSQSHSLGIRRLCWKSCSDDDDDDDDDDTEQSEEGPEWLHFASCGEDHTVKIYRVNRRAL
UniProt Q9CZX0: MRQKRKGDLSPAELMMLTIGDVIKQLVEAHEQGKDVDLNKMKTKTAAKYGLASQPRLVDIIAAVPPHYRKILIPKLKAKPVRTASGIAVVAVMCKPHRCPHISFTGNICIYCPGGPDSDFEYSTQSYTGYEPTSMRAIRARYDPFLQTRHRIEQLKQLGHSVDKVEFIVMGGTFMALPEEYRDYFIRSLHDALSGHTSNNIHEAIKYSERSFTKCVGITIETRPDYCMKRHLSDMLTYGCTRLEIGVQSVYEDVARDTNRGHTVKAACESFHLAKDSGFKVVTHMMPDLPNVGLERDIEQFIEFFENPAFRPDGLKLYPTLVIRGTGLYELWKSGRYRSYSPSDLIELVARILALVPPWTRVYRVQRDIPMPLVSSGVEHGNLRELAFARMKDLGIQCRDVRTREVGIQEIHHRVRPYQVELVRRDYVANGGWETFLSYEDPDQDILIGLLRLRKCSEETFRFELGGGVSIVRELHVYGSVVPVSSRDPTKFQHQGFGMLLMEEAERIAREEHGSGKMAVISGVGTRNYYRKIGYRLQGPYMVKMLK

How the values were obtained:
[1] = biological target: T1, murine Elp123 subcomplex, wild type (murine) (UniProt Q7TT37+Q91WG4+Q9CZX0); experiment: pull-down; mElp123WT immobilised on Dynabeads MyOne Streptavidin C1 via Twin-Strep-tagged Elp3, incubated with Elp456 variants 30 min at 4°C, washed 3 times (20 mM HEPES pH 7.5, 100 mM NaCl, 1 mM DTT, 0.05% Tween 20), eluted with 5 mM d-desthiobiotin; Coomassie; both purified
[2] = biological target: T1, murine Elp123 subcomplex, wild type (murine); experiment: SEC; mElp123WT incubated with Elp456 variants 30 min at 25°C in 2:1 ratio, then Superose 6 Increase 10/300 GL in 20 mM HEPES pH 7.5, 100 mM NaCl, 5 mM DTT; co-migration; both purified

binding [1] | binding [2] | Binder
binds | binds | murine Elp456 subcomplex, wild type (complex, UniProt Q9ER73 1-422; Q99L85 1-300; Q8BK75 1-266) chain 1: MAAADTCGAGTLSSRSVASEAGQGGTSSFQRKGKASGGPGGGPRLLSIAGTRPSVRNGQLLVSTGLPALDQLLGGGLAVGTLLLIEEDKYNIYSPLLFKYFMAEGIINGHTLLVASAKENPAKILQELPAPLLDDNSKKELEDVHSAKTPEPNVNMKIAWRYQLQPKMEVGPVSSSRFGHYYDLSKRIPWELLQSSKWHGFFLPEHISPDLKGESCFLSCGYMRLLEFIQKSVYAEGFDGANPQKKQKNILRIGIQNLGSPLWGDDICCKENCDNNHRLTKFLYILRGLLRSSLSACIITMPAHLVQNKSITTRVRNLSDTVVGLESFIGSERETNPLYKDYHGLIHIRKIPRLNNLTCDESDVKDLAFKLKRKLFTIERLHLPPDLSDTVGRSSKQDLAASTARLGAGCSSMAEGKKHLDF chain 2: MLDSLLAIGGLVLLRDSVEWEGRSLLKALIKKSALRGEQVHVLGCEVSEEEFREGFDSDVNSRLVYHDLFRDPLNWSKPGEAVPEGPLKALRSMCKRTDHGSVTIALDSLSWLLCHIPCVTLCQALHALSQQNGDPGDNSLVEQVRVLGLLHEELHGPGSMGALNTLAHTEVTLSGKVDQTSASILCRRPQQRATYQTWWFSVLPDFSLTLHEGLPLRSELHPDHHTTQVDPTAHLTFNLHLSKKEREARDSLTLPFQFSSEKQKALLHPVPSRTTGHIFYEPDAFDDVDPEDPDDDLDI chain 3: MFPELNNLLSTTPDKTEQGTLTLLCDAKTDGSFLVHHFLSFYLKANCKVCFVALVQSFSHYNIVGQKLGVSLTAARDRGQLVFLEGLKSSVEVLFHSQDEPHPLQFLREAGTGNLQSLYTFIQDTLKPADSEESPWKYPVLLVDNLSVLLSLGVGAVAVLDFMQYCRATVCCELKGNVVALVHDTEGATDEGNDTLLNGLSHQSHLILRAEGLATGFCKDVHGQLSILWRRPSRSTAQRAQSLTYQYKIQDKNVSFFAKGMSPAVL
binds | binds | murine Elp456 subcomplex with Elp4 Y90C (complex, UniProt Q9ER73 1-422; Q99L85 1-300; Q8BK75 1-266) chain 1: MAAADTCGAGTLSSRSVASEAGQGGTSSFQRKGKASGGPGGGPRLLSIAGTRPSVRNGQLLVSTGLPALDQLLGGGLAVGTLLLIEEDKCNIYSPLLFKYFMAEGIINGHTLLVASAKENPAKILQELPAPLLDDNSKKELEDVHSAKTPEPNVNMKIAWRYQLQPKMEVGPVSSSRFGHYYDLSKRIPWELLQSSKWHGFFLPEHISPDLKGESCFLSCGYMRLLEFIQKSVYAEGFDGANPQKKQKNILRIGIQNLGSPLWGDDICCKENCDNNHRLTKFLYILRGLLRSSLSACIITMPAHLVQNKSITTRVRNLSDTVVGLESFIGSERETNPLYKDYHGLIHIRKIPRLNNLTCDESDVKDLAFKLKRKLFTIERLHLPPDLSDTVGRSSKQDLAASTARLGAGCSSMAEGKKHLDF chain 2: MLDSLLAIGGLVLLRDSVEWEGRSLLKALIKKSALRGEQVHVLGCEVSEEEFREGFDSDVNSRLVYHDLFRDPLNWSKPGEAVPEGPLKALRSMCKRTDHGSVTIALDSLSWLLCHIPCVTLCQALHALSQQNGDPGDNSLVEQVRVLGLLHEELHGPGSMGALNTLAHTEVTLSGKVDQTSASILCRRPQQRATYQTWWFSVLPDFSLTLHEGLPLRSELHPDHHTTQVDPTAHLTFNLHLSKKEREARDSLTLPFQFSSEKQKALLHPVPSRTTGHIFYEPDAFDDVDPEDPDDDLDI chain 3: MFPELNNLLSTTPDKTEQGTLTLLCDAKTDGSFLVHHFLSFYLKANCKVCFVALVQSFSHYNIVGQKLGVSLTAARDRGQLVFLEGLKSSVEVLFHSQDEPHPLQFLREAGTGNLQSLYTFIQDTLKPADSEESPWKYPVLLVDNLSVLLSLGVGAVAVLDFMQYCRATVCCELKGNVVALVHDTEGATDEGNDTLLNGLSHQSHLILRAEGLATGFCKDVHGQLSILWRRPSRSTAQRAQSLTYQYKIQDKNVSFFAKGMSPAVL
